Experimental data as given in patent US11376257B2, “Generation of muscle lineage cells and therapeutic uses thereof” (GENEA BIOCELLS USA (HOLDINGS), INC., priority 2016, dated 2022).

System: stem cell-derived myoblasts
Procedure: For screening, frozen satellite-like cells, prepared as described in Example 1, were thawed in a water bath at 37° C., resuspended in 3 mL of warm Myoblast Medium (Genea Biocells) and centrifuged at 400×g for 4 min. The supernatant was removed and the cell pellet was resuspended in 1 mL of medium for cell count. Cells were seeded at a density of 5,000 cells/cm^2 in collagen I-coated plastic flasks (Biocoat, BD Bioscience) and incubated at 5% CO2, 37° C. Every other day the culture medium was exchanged until cells reached a confluency of 80%, then cells were trypsinized, counted and seeded in collagen-coated 96-well plate (Biocoat) at density of 30,000 cells/cm^2 in Myoblast Medium using an automated liquid handling system (Fluent, Tecan Trading AG, Switzerland). Cells were incubated at 5% CO2, 37° C. and the medium was changed every other day until cells reached a confluence of 80%. The medium was exchanged for Myotube Medium (Genea Biocells) containing the test compounds. No further media changes were performed. In general, 3 to 6 concentrations were tested ranging from 3 μM to 1 nM; one plate per dilution was used. Media and DMSO control wells were placed randomly. No media changes were performed at this stage. […]

CN1[C@@H]2CC[C@H]1C[C@@H](OC(=O)C(CO)c1ccccc1)C2 (stereo partly shown) [atropine]
toxicity: toxic
